Test results reported in patent US20080214521A1, “Sensitization of Drug-Resistant Lung Caners to Protein Kinase Inhibitors” (priority 2005, published 2008).

Tested on: NSCLC cell lines
Conditions: cell lines protected against apoptosis induced by cytotoxic drugs; 48 hours

Compound | sensitivity to apoptosis induced by PKC-specific inhibitors (sub-G1)
CO[C@@H]1[C@H](N(C)C(=O)c2ccccc2)C[C@H]2O[C@]1(C)n1c3ccccc3c3c4c(c5c6ccccc6n2c5c31)C(=O)NC4 [PKC412, N-[(9S,10R,11R,13R)-2,3,10,11,12,13-hexahydro-10-methoxy-9-methyl-1-oxo-9,13-epoxy-1H,9H-diindolo[1,2,3-gh:3′,2′,1′-Im]pyrrolo[3,4j][1,7]benzodiazonin-11-yl]-N-methylbenzamide] | reduced sensitivity
CN[C@@H]1C[C@H]2O[C@@](C)([C@@H]1OC)n1c3ccccc3c3c4c(c5c6ccccc6n2c5c31)C(=O)NC4 [staurosporine] | reduced sensitivity
